## Library screen at single concentrations

Protein sequences, listed by entry. Tags and fused reporters are not part of them. Residues count along the entry.
UniProt A4I591, 1-473: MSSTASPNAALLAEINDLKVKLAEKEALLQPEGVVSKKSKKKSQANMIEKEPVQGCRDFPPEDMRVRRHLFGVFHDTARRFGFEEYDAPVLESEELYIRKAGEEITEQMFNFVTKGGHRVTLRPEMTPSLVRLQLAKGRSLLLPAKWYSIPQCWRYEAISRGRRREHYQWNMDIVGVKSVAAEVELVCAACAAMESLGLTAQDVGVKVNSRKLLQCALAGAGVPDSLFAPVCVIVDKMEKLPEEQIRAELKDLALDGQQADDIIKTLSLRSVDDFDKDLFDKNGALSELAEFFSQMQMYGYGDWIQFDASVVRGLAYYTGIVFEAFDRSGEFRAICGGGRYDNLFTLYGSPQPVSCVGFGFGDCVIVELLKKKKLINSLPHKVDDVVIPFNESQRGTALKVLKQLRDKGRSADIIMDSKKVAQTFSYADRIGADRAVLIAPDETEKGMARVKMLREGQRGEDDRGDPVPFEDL

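Enzyme assay of histidyl-tRNA synthetase; the read-out is not stated. Target: Histidine-tRNA ligase, Leishmania infantum (UniProt A4I591). Concentration: 30 µM. Higher reads as stronger inhibition (inferred: compounds with an IC50 in retests scored well above the rest). The assay is labelled LdHisRS but filed under L. infantum. About 69,000 compounds were tested under these conditions; 0.6% (about 410) showed 50% or more at least once.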

The filed quantity is “Percent Effect” (%).
The controls that fix the scale are not given in the record; negative values are as filed.
Compounds were drawn at random from those tested, without regard to their results.

{"smiles": "CC(=O)N1CCCN(C(=O)NCCc2ccc(Cl)s2)CC1", "Percent Effect": 5.405}
{"smiles": "N#Cc1cc(F)ccc1CN1CCCC1Cn1cccn1", "stereo": "configuration not stated", "Percent Effect": 20}
{"smiles": "COC(C)C(=O)NS(=O)(=O)c1cccc2cc(C)cnc12", "stereo": "configuration not stated", "Percent Effect": 13.7}
{"smiles": "Cc1nccc(C2(C)CCCNC2)n1", "stereo": "configuration not stated", "Percent Effect": 0}
{"smiles": "CC(C)C(=O)NC1COC2(CCN(C(=O)c3cccnc3)CC2)C1", "stereo": "configuration not stated", "Percent Effect": 21.36}
{"smiles": "Cc1cnc(C(=O)N2C[C@H]3CN(Cc4nccs4)C[C@H]3C2)cn1", "Percent Effect": 15.96}
{"smiles": "COc1ccccc1OCc1nc(C(C)C)no1", "Percent Effect": 6.667}
{"smiles": "CCN(CC)S(=O)(=O)N1CCCN(CC(=O)NC(C)C)CC1", "Percent Effect": -9.091}
{"smiles": "O=C(Cc1c[nH]c2ccccc12)N1CCC(Nc2ccccc2)CC1", "Percent Effect": 7.895}
{"smiles": "Cn1ccnc1CN1CCN(CCOc2ccccc2F)CC1", "Percent Effect": 11.4}
{"smiles": "Cc1ccc(C(C)NC(=O)Nc2ccccc2CN2CCOCC2)o1", "stereo": "configuration not stated", "Percent Effect": 20.75}
{"smiles": "CC(C)NC(=O)N1CCOC2(CNC2)C1", "Percent Effect": 19.42}
{"smiles": "CCc1noc(C2CCCCN2C(=O)c2cccs2)n1", "stereo": "configuration not stated", "Percent Effect": 10.34}
{"smiles": "Cc1nc(CNC(=O)c2cc(COc3ccccc3)[nH]n2)n[nH]1", "Percent Effect": 24.78}
{"smiles": "CN(CC1(CO)CC1)C(=O)C1CCC(=O)N(Cc2ccc(Cl)cc2)C1", "stereo": "configuration not stated", "Percent Effect": 6.667}
{"smiles": "COc1ccc2c(c1)CC(C1CCOCC1)N(C(=O)c1ccnn1C)C2", "stereo": "configuration not stated", "Percent Effect": 11.51}
{"smiles": "c1ccc(CO[C@H]2CO[C@@]3(CCCN(Cc4ccncc4)C3)C2)nc1", "Percent Effect": 17.95}
{"smiles": "Cc1ccc(N2CCCN(C(=O)c3cc(CC(C)C)n[nH]3)CC2)nn1", "Percent Effect": 14.58}
{"smiles": "CN(C(=O)c1ccon1)[C@@H]1CCC[C@@H](Oc2ccccc2)[C@@H]1O", "Percent Effect": -5.263}
{"smiles": "O=C1COc2cc(C(=O)NS(=O)(=O)c3ccccc3F)ccc2N1", "Percent Effect": -10.61}
{"smiles": "Cc1ccc2c(c1)nc1n2[C@@H](CNC(=O)c2cncnc2)COC1", "Percent Effect": 22.97}
{"smiles": "CN(C)C(=O)COC[C@]12COC[C@H]1CN(Cc1ccccc1)C2", "Percent Effect": 8.333}
{"smiles": "CSc1cccc(CN(C)C(=O)c2ccc(C3CCCNC3)cc2)c1", "stereo": "configuration not stated", "Percent Effect": 18.03}
{"smiles": "Cc1ccc(OCCN2CCCC(c3cc(C(N)=O)[nH]n3)C2)cc1", "stereo": "configuration not stated", "Percent Effect": 1.724}
{"smiles": "CCCc1cc(C(=O)Nc2nc(SC)ns2)n(C)n1", "Percent Effect": 11.51}
{"smiles": "Cc1cc(CN2CC[C@H]3C[C@H](C)O[C@@H]3C2)no1", "Percent Effect": 12.03}
{"smiles": "CCc1cc(N[C@H]2CCC[C@H]2O)n2nccc2n1", "Percent Effect": 20}
{"smiles": "CNCC(=O)N1CC(c2cc(Nc3nc(C)cs3)nc(C)n2)C1", "Percent Effect": 20}
{"smiles": "C=C(C)COc1ccccc1C(=O)N1CCC2(CC1)CN(C)CCN2C", "Percent Effect": 15.38}
{"smiles": "CNC(=O)CN(C)C(=O)Cc1csc(C(C)C)n1", "Percent Effect": 12.68}
{"smiles": "Cc1ccc(OCCCSC2=NCCN2)cc1", "Percent Effect": 5.376}
{"smiles": "CCS(=O)(=O)N(C)C(=O)c1cc(C)n(-c2cccc(OC)c2)c1C", "Percent Effect": 12.36}
{"smiles": "Cc1c(C(=O)N2CCCN(S(C)(=O)=O)CC2)cnn1C", "Percent Effect": 10.59}
{"smiles": "Cc1nc(C)n(CC2CCCCN2CC(=O)Nc2nncs2)n1", "stereo": "configuration not stated", "Percent Effect": 20.39}
{"smiles": "CC(C)c1noc(CN2CCC(c3nc4cc(Cl)ccc4o3)CC2)n1", "Percent Effect": 10.2}
{"smiles": "Cc1[nH]c2c(C)ccc(C)c2c1CC(=O)NC1CCCNC1=O", "stereo": "configuration not stated", "Percent Effect": 17.7}
{"smiles": "CC(NC(=O)Nc1nncs1)C(=O)NC1CCCC1", "stereo": "configuration not stated", "Percent Effect": 15.05}
{"smiles": "CCOc1ncccc1CNc1cc(COC)ncn1", "Percent Effect": 12.5}
{"smiles": "O=C(CCn1cccn1)N1CCSCC1", "Percent Effect": 12.84}
{"smiles": "O=C(CCC(F)(F)F)N1CCN(Cc2ccncc2)[C@@H]2CS(=O)(=O)C[C@@H]21", "Percent Effect": -5.195}
{"smiles": "c1cnc(N2CCOCC3(CCCN(CC4CC4)C3)C2)cn1", "stereo": "configuration not stated", "Percent Effect": 9.434}
{"smiles": "COCC(NC(=O)c1ccco1)c1cccc(C(F)(F)F)c1", "stereo": "configuration not stated", "Percent Effect": 15.29}

Repeated from the top, 4 entries:

SMILES	Percent Effect
CC(=O)N1CCCN(C(=O)NCCc2ccc(Cl)s2)CC1	5.405
N#Cc1cc(F)ccc1CN1CCCC1Cn1cccn1 (configuration not stated)	20
COC(C)C(=O)NS(=O)(=O)c1cccc2cc(C)cnc12 (configuration not stated)	13.7
Cc1nccc(C2(C)CCCNC2)n1 (configuration not stated)	0

From ChEMBL document CHEMBL3988442, “University of Dundee, Small-Polar-MMV Screening Library” (2021).